The text below walks through data of paper doi:10.1101/583740 (bioRxiv, 2019).

Chains of the proteins cited; added tags and fusions are not shown. Lines headed by an entry give the natural chain unless they say otherwise; changes in a name come on top.
UniProt Q9QZC1: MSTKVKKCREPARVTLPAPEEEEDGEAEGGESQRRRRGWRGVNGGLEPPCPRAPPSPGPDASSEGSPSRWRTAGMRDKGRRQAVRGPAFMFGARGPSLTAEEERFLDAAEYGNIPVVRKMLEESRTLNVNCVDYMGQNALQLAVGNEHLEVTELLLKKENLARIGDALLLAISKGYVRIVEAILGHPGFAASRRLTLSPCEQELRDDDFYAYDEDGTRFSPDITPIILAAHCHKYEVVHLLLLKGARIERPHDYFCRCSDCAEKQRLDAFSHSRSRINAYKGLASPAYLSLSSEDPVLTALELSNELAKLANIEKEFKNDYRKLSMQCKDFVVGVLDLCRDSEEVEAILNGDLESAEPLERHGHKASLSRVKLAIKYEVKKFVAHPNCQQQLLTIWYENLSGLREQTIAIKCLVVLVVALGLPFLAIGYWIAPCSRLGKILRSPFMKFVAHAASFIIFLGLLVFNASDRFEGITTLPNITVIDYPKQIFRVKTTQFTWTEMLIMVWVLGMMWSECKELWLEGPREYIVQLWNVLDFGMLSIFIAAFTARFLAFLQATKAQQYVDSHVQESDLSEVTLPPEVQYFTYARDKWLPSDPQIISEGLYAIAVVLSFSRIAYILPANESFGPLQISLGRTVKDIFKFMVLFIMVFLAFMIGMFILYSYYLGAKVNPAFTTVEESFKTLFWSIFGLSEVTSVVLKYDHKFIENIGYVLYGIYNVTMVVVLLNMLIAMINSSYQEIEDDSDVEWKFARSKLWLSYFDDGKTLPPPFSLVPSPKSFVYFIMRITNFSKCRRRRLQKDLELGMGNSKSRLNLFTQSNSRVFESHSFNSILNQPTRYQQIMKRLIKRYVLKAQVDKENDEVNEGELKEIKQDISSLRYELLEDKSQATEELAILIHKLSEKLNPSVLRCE

In the test the target is T1, Recombinant SIRT1 (full-length) (UniProt Q923E4).
T1 sequence: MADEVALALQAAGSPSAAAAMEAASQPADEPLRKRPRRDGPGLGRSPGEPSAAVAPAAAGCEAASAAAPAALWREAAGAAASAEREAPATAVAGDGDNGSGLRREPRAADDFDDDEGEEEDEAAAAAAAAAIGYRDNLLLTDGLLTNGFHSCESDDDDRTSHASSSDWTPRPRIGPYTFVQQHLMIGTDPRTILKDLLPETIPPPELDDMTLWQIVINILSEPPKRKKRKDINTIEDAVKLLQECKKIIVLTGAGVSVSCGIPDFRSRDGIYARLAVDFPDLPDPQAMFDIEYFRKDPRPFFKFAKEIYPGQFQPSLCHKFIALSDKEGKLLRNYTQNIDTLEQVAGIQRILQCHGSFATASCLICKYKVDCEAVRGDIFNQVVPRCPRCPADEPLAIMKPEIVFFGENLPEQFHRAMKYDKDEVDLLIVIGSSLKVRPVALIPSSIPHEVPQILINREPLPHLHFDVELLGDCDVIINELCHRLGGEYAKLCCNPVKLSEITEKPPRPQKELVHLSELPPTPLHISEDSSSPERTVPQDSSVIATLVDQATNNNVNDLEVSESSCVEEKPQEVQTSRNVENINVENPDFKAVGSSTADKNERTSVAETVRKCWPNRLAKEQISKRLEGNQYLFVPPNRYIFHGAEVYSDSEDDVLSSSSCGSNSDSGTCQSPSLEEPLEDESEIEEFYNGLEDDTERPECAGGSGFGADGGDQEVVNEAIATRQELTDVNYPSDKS
The test can be described thus: condition: 140.2, 280.4, 560.8, 1122, 2243 μM TRPC3-N.

These are yes or no findings as the source states them, for the method shown.

With “TRPC3-N (1-369aa) (from UniProt Q9QZC1) (domain or fragment)”, the binding result is on record as “no binding”.
